This is one part of the list.

Chains of the proteins cited; added tags and fusions are not shown.
UniProt Q0JBA9, entry or part of it: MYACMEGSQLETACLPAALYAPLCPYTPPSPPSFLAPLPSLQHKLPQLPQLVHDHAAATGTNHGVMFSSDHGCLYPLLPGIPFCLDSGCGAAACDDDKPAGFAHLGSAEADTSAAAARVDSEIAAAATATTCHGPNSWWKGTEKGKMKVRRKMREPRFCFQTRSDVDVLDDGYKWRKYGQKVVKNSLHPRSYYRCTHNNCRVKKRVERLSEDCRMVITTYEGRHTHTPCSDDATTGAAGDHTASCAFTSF

The assay deals with OsWRKY34 (Oryza sativa, UniProt Q0JBA9 1-250). Nature of the assay: protein-binding microarray (RPBM); PBS, 2% BSA, 51.3 ng/ul salmon testes DNA, 50 uM zinc acetate, 200 nM TF, 25 C, 1 h; high values mean tight binding. To be noted: protein: recombinant; tags: N-terminal polyhistidine and DsRed monomer fusion (pET32a); label: CyDye5-dUTP incorporated in the synthesized complementary strand; 3' TTTTT single-stranded linker to array surface; dsDNA, one strand shown. In outline: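 Polyhistidine-tagged DsRed fusions of transcription factors, joined at the N-terminus, were expressed in E. coli BL21-CodonPlus and isolated on Ni–NTA. They were incubated at 200 nM for 1 h at 25 °C on a custom Agilent array, double-stranded and BSA-blocked, in PBS with 2% BSA, salmon testes DNA and 50 µM zinc acetate. The binding signal is per-feature fluorescence intensity (arbitrary units) read on an Axon 4000B scanner after washing.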
For the sequence “ATTGTGTTATCAATTCATCTTTGTTATCGTCTTTCTTATGCGGAGTCACCTAGTGCAG”, the binding signal is 10800 fluorescence intensity (a.u.).
The same measure for “TCTTTCTTTCTTTCTTTCTTGTGCGTCATCTCTATCACCGCGGAGTCACCTAGTGCAG”: 9850 fluorescence intensity (a.u.); for “ATTTACGCTTTTTTAAGCTCTTTTCCGTTCACTTCTGGACCGGAGTCACCTAGTGCAG”: 9140 fluorescence intensity (a.u.).
“CCCCTGGACAACCAAGGAGATGTTCCCAATCATTCTCACCCGGAGTCACCTAGTGCAG”: the binding signal was 8380 fluorescence intensity (a.u.).
For the sequence “TTCACCTGTCTCTCGCCTGCCAACCATCGATCCAAGTCCCCGGAGTCACCTAGTGCAG”, the binding signal was 12100 fluorescence intensity (a.u.).
The same measure for “CGGTTTTGTATAGTTTAGGGGTGGAGATTTCTGGTTTTGTCGGAGTCACCTAGTGCAG”: 10300 fluorescence intensity (a.u.).
The same measure for “TGTTGCATTTCTCGTCCTGATTTGCGTCCTGCAGCTCTCTCGGAGTCACCTAGTGCAG”: 8630 fluorescence intensity (a.u.).
As to “TTTCGTCTTCAATTTTGCTATATATTTGTCGACAAATTTTCGGAGTCACCTAGTGCAG”, the binding signal was 10100 fluorescence intensity (a.u.).
The same measure for “CCGACGATGTTTTCCTCATAGCTCCTGCATTCCAATTTCCCGGAGTCACCTAGTGCAG”: 8680 fluorescence intensity (a.u.).
Turning to “CTGGGTGTGGGTGTGGGTCTGGGTCTGGGTGGAAGAGGAACGGAGTCACCTAGTGCAG”, the binding signal was 21200 fluorescence intensity (a.u.).
The same measure for “TCGTCTCGATATGTACACCCACACTGCCACATAAATCCTTCGGAGTCACCTAGTGCAG”: 9340 fluorescence intensity (a.u.); for “GTTCGCCGTGGATTTCTTTTCTTGCGTCAGTGATACTGATCGGAGTCACCTAGTGCAG”: 8170 fluorescence intensity (a.u.); for “TAGACCGACCAGTGAGCCCCTTGCTGTCATCTCCTATCCTCGGAGTCACCTAGTGCAG”: 8080 fluorescence intensity (a.u.).
Next, “TCCGCGGCCACGCCATCCGCTCCTACATCTCGCCGGGTGACGGAGTCACCTAGTGCAG”: 9350 fluorescence intensity (a.u.); “CTGAACACTCTATGCTGCAGGTCAACGCAAGCTCACTCAACGGAGTCACCTAGTGCAG”: 8380 fluorescence intensity (a.u.).
The same measure for “CAACTCTCTCTCTCTCTCTTTCTCTGCAGCTCCACCTTCTCGGAGTCACCTAGTGCAG”: 8690 fluorescence intensity (a.u.); for “AATTGTGCTGTGGAGTTGTGATGTGGATTTGGGGTTCAATCGGAGTCACCTAGTGCAG”: 13700 fluorescence intensity (a.u.).
As for “CCACCTCATCACCATGTACTCCCACTGCGCCGACCTCGCCCGGAGTCACCTAGTGCAG”, the binding signal was 9170 fluorescence intensity (a.u.).
The same measure for “TTGCTCTTCGACACCCCTGCTTCATGATCATGCTTTGCCTCGGAGTCACCTAGTGCAG”: 9730 fluorescence intensity (a.u.); for “TTTTGCCACTATTTTGATATTTTTCCATTCTACTGATTTTCGGAGTCACCTAGTGCAG”: 8860 fluorescence intensity (a.u.).
Next, “AAGCGACGACCCAATTGTTTAACACGCCTTGTAGGTCCAACGGAGTCACCTAGTGCAG”: 8140 fluorescence intensity (a.u.); “TAGTTTGTATTATGTCCAACGTTTAACCGTCCATCTTATTCGGAGTCACCTAGTGCAG”: 8650 fluorescence intensity (a.u.); “TTCATTTGTGGCCAAAACGTCCAATTCAGTCATCCGTTTCCGGAGTCACCTAGTGCAG”: 10300 fluorescence intensity (a.u.).
As to “CACATCAACCTGCACCAATCATGCCATCGAGATCACAACACGGAGTCACCTAGTGCAG”, the binding signal is 10400 fluorescence intensity (a.u.).
The same measure for “GTATTAAACTTTTAGATAGAGGCAGTACTAGTTTTTTTTTCGGAGTCACCTAGTGCAG”: 8600 fluorescence intensity (a.u.); for “TAGGATATTTAGTTGTGCTTGCAATGATGTCATTGCTTGTCGGAGTCACCTAGTGCAG”: 8900 fluorescence intensity (a.u.); for “AAATAAACCAAGTTCCAACGCGCACACACACACAACGAGCCGGAGTCACCTAGTGCAG”: 8110 fluorescence intensity (a.u.).
The same measure for “GCTAGTCTTGCTTTTAACCTTTCATATCATATAAAATCTACGGAGTCACCTAGTGCAG”: 9210 fluorescence intensity (a.u.).
Regarding “GGGTTTCCTTCGTTTCGTTGTTGAACGCGGCCGCTTGCCACGGAGTCACCTAGTGCAG”, the binding signal is 9300 fluorescence intensity (a.u.).
Regarding “ACTAATCGTCCTAGAATGTGTTATATTGTTGTAAGAGTTTCGGAGTCACCTAGTGCAG”, the binding signal is 8170 fluorescence intensity (a.u.).
Next, “ATTAATTCACTCCAATAGCATCATCCAATTTCCCACTCACCGGAGTCACCTAGTGCAG”: 8300 fluorescence intensity (a.u.); “TATTTGGTTTAGGTTCTTTTTGTTTCGTAAATTTCTCTATCGGAGTCACCTAGTGCAG”: 9420 fluorescence intensity (a.u.); “CTGCCTTCATACTAGCACATTCGTCAGTTATTATTAGCCTCGGAGTCACCTAGTGCAG”: 10600 fluorescence intensity (a.u.).
“GATTAGTTAAGGGATGCGGGATATATGGTTTTACGGTTTGCGGAGTCACCTAGTGCAG”: the binding signal was 8760 fluorescence intensity (a.u.).
Take “TTTAAAGCTGTCACCTTTTCCCATCTCTCTCTCTCTCTCTCGGAGTCACCTAGTGCAG”: the binding signal was 8220 fluorescence intensity (a.u.).
Next, “GATCGCCGGTTCGGTTTTTTCAACTATGGTCGTCGCTAAGCGGAGTCACCTAGTGCAG”: 11100 fluorescence intensity (a.u.).
Next, “ACAAACATCCTGTAGCCCCAACATTGCTTCACTTCAGGGTCGGAGTCACCTAGTGCAG”: 8450 fluorescence intensity (a.u.); “GCCGTCCGCGCGTGGGGAGGGGCTCGCCGGCCGTCCGCGACGGAGTCACCTAGTGCAG”: 9020 fluorescence intensity (a.u.).
The same measure for “CCCACTCCACCTTCCCCGTTTTACACGCACCTACTCCTATCGGAGTCACCTAGTGCAG”: 8030 fluorescence intensity (a.u.); for “CCTCGCACCGCCCGATAATAATACGACCAAACCAAAGACACGGAGTCACCTAGTGCAG”: 8120 fluorescence intensity (a.u.); for “AGGGGAGGGATGTTTGACGCCTTTGATAATATTTCAAGTACGGAGTCACCTAGTGCAG”: 10700 fluorescence intensity (a.u.).
In the case of “ATATCATGTTTATTATCTTGTTATTTTGGATTAAAATATGCGGAGTCACCTAGTGCAG”, the binding signal was 9720 fluorescence intensity (a.u.).

The values are drawn from publication PMC7819943, “Rice protein-binding microarrays: a tool to detect cis-acting elements near promoter regions in rice”.
